No constants are given. Whether binding was seen depends on the method and setting. In cells and extracts the contact can be indirect. Some entries that bind do so weakly or less than the wild type.
Columns and labels:
[1] = biological target: C‐terminus of Sigmar1 (31–223 aa) (mouse) (UniProt O55242); assay: co-IP; HEK‐293T cells transfected with the indicated plasmids for 48 h; lysates precipitated with Flag‐tag or Myc‐tag mouse mAb at 4°C overnight, protein A/G beads, western blotting
[2] = biological target: Sigma‐1 receptor (Sigmar1), 3×FLAG-tagged (not stated (human or mouse cDNA cloned)) (UniProt O55242); assay: as above
[3] = biological target: Sigmar1, endogenous in mouse BMMs (mouse (endogenous in BMMs)) (UniProt O55242); assay: co-IP; endogenous proteins; lysates of mouse BMMs incubated with anti‐Sigmar1 antibody or normal rabbit IgG, protein A/G beads, western blotting

Sequences of proteins named here, by UniProt entry; tags and fusion partners are left off. A change or cut given only in a name is not applied to a line headed by its entry. A line that says so, or that is headed by a name, gives the form on record, which may keep a tag or linker. Residues count along the entry.
UniProt O55242: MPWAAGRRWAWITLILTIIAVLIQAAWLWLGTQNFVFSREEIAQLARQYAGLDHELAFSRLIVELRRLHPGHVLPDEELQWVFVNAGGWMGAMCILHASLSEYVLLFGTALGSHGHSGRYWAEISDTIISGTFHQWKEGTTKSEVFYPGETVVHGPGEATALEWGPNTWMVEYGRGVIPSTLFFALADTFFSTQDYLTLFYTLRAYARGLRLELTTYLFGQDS
C‐terminus of Sigmar1 (31–223 aa): residues 31-223 of O55242
UniProt O55143: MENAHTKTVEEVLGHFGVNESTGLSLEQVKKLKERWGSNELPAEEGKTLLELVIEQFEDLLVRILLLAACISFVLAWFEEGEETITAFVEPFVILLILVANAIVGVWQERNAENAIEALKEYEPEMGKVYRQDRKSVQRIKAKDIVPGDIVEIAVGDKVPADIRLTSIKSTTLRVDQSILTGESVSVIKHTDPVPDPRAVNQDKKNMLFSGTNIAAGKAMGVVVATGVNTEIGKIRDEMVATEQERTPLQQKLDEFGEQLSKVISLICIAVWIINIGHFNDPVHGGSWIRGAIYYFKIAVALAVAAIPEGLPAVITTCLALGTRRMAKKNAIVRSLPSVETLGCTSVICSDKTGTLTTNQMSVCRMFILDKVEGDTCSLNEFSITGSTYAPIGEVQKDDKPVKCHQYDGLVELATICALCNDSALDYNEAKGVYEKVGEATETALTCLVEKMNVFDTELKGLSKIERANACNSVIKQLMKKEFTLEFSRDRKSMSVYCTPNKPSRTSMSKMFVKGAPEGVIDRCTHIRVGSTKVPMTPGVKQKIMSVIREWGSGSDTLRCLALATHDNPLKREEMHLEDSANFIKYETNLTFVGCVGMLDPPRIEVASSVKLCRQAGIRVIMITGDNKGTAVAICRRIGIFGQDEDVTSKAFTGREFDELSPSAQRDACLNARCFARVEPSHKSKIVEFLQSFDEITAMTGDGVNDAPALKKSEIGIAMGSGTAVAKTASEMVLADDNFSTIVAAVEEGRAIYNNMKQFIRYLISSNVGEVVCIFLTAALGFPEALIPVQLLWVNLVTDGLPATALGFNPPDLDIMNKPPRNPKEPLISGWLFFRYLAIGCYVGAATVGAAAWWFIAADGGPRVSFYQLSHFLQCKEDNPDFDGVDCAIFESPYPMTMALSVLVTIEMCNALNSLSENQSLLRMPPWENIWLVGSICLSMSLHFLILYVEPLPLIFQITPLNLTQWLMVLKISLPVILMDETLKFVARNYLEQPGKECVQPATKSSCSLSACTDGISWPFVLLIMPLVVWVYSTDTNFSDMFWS
SERCA2 truncation (314–807 aa) with the Q615A mutation (O55143, form named): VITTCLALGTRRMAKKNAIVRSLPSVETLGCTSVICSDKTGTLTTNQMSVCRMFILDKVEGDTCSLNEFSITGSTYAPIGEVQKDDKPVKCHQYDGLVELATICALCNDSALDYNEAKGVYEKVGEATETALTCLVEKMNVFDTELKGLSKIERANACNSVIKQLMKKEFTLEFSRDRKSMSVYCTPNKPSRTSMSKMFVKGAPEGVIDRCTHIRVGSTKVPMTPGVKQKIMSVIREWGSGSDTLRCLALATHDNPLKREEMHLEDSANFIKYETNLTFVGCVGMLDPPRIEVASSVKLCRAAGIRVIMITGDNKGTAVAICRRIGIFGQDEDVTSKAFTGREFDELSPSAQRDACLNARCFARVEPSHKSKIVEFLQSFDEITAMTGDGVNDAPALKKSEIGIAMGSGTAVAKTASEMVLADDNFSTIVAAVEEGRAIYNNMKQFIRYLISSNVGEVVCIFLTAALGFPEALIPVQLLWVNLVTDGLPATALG

Row | binding [1] | binding [2] | binding [3] | Substance
1 | binds | binds | – | mouse SERCA2, 3×MYC-tagged, full length (from UniProt O55143 1-1044) (enzyme)
2 | – | binds | – | SERCA2 truncation‐3 (314–807 aa) (from UniProt O55143 314-807) (domain or fragment)
3 | – | binds weakly | – | full‐length SERCA2 with the Q615A mutation (from UniProt O55143 1-1044) (enzyme)

Further lines, the substance ahead of its results:

Row | Substance | binding [1] | binding [2] | binding [3]
4 | SERCA2 truncation (314–807 aa) with the Q615A mutation (from UniProt O55143 314-807) (domain or fragment) | – | binds weakly | –
5 | SERCA2, endogenous in mouse BMMs (from UniProt O55143 1-1044) (enzyme) | – | – | binds

Reference: PMC9260208
